PubChem BioAssay AID2685 (National Center for Advancing Translational Sciences (NCATS), 2010)
The other results are listed elsewhere or left out. These are further read-outs of the screen, such as a control signal, another cell line or another target. No call is given for them. Most of these compounds were active or inconclusive in the main read-out, so they are no random draw. Potencies come from curve fits of mixed quality, noted in brackets.

Assay: qHTS Assay for Lipid Storage Modulators in Drosophila S3 Cells;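 for cell number change: cells counted by Cell Tracker Red CMTPX staining in the red channel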
Conditions: BODIPY lipid droplet fluorescence, 18-24 h; for cell number change: measured here: cell count max response, cells fed with added oleic acid
Summary of the method: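 Drosophila S3 cells got compounds at several concentrations plus oleic acid (400 uM solution). Laser-scanning cytometry with 488 nm excitation read lipid droplets at 500-530 nm and cells at 575-640 nm. Percent activity was relative to 20 uM Triacsin C.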

[1] = measured here: lipid fluorescence (Fed channel) AC50, cells fed with added oleic acid
[2] = measured here: cell number channel AC50, cells fed with added oleic acid

SMILES | cell number change [%] | AC50 [1] | AC50 [2]
COc1ccc(-c2noc(N3CCCC(C(=O)Nc4ccccc4F)C3)n2)cc1 (configuration not stated) | 28 | 0.461 µM [rising, full curve, poor fit] | –
O=C(Nc1ccc(Cl)c(-c2nc3ccccc3[nH]2)c1)c1ccc2c(c1)OCO2 | -1.61 | – | 6.51 µM [rising, partial curve, poor fit]
CCc1nc(SCC(=O)NNC(=O)C(C)C)c2ccccc2n1 | – | 6.51 µM [rising, single point] | 6.51 µM [rising, single point]
Cc1cc(C)c(NC(=O)COC(=O)COc2ccc3c(C)cc(=O)oc3c2)c(Cl)c1 | -15.4 | 2.06 µM [rising, partial curve, poor fit] | –
CC(=O)Nc1ccc(S(=O)(=O)N(C)CC(=O)OCC(=O)N(C)C2CCS(=O)(=O)C2)cc1 (configuration not stated) | -17.9 | – | –
CCn1cc(C(=O)NCc2ccccc2Cl)cn1 | 15 | 32.6 µM [rising, single point] | –
N#CCn1nnc(-c2ccc3c(c2)OCO3)n1 | -4.26 | 29.1 µM [rising, single point] | –
O=C(c1ccco1)c1cc2c(ccc3ccccc32)oc1=O | -43.5 | 2.59 µM [rising, full curve] | –
COC(=O)c1sccc1NC(=O)CSCC(=O)O | – | 6.51 µM [falling, partial curve] | 6.51 µM [falling, single point]
COC(=O)C(NS(=O)(=O)c1cccc(S(=O)(=O)NC(C(=O)OC)c2ccccc2)c1)c1ccccc1 (configuration not stated) | -0.971 | 23.1 µM [falling, single point] | –
O=C(O)CSCC(=O)NCc1cccc(C(F)(F)F)c1 | 19.9 | – | –
COc1ccc(OCC(=O)NNC(=O)c2nn(C)c(=O)c3ccccc23)cc1 | 0.494 | – | –
CC1(C)CC(=O)c2cc(N=C/C(C(=O)c3ccccc3)=C(\O)c3ccccc3)c(=O)oc2C1 | -31.8 | – | 29.1 µM [falling, single point]
COC(=O)c1sc(-c2ccccc2)cc1NC(=O)c1cc(OC)cc(OC)c1 | 14.1 | 0.326 µM [rising, full curve, poor fit] | 0.58 µM [falling, single point]
COc1ccc(C(=O)Nc2ccc(NC(=O)C3CC3)nc2)cc1 | -12 | 29.1 µM [falling, single point] | –
CN(CC(=O)Nc1ccc(F)cc1)C(=O)COC(=O)COc1ccc(C#N)cc1 | -20.8 | 2.31 µM [falling, full curve] | –
O=C(c1cc(Cl)ccc1O)N1CCN(S(=O)(=O)c2cccs2)CC1 | 6.43 | – | –
CCOC(=O)c1c(C)[nH]c(C(=O)NNC(=O)c2ccccc2)c1C | 139 | – | 23.1 µM [rising, single point]
COc1ccccc1N(C)S(=O)(=O)c1ccc(Cl)c(C(=O)NCC2(N(C)C)CCCCC2)c1 | 2.57 | 11.6 µM [falling, partial curve] | –
Cn1cc(C(=O)N/N=C/c2cc(Br)cs2)c2ccccc21 | 16.5 | 14.6 µM [rising, single point] | –

SMILES | cell number change [%] | AC50 [1] | AC50 [2]
O=C(c1cc(Cl)ccc1Cl)N1CCN(Cc2ccccc2)CC1 | 21.4 | – | –
Cn1c(SCc2cccc3ccccc23)nnc1-c1ccco1 | – | 0.326 µM [falling, single point] | –
Cc1cccc(N=C2NN=C(c3ccc4c(c3)OCCO4)CS2)c1 | -19.5 | 0.517 µM [rising, full curve, poor fit] | –
CN1/C(=C/C(=S)NC(=O)C2CCC2)C(C)(C)c2ccccc21 | -50.2 | 1.03 µM [falling, partial curve] | 20.6 µM [falling, partial curve, poor fit]
CCCCN(C(=O)CCC(=O)Nc1cc(C)on1)C(C(=O)NC(C)(C)CC)c1cccc(OC)c1OC (configuration not stated) | -23.6 | 9.2 µM [falling, partial curve] | –
C=CCSC1=N/C(=C\c2ccsc2)C(=O)S1 | 10.4 | 3.26 µM [falling, full curve, poor fit] | –
COc1ccccc1N1CCN(C2CCN(C(=O)c3cc(OC)c(OC)c(OC)c3)CC2)CC1 | 1.08 | 32.6 µM [rising, single point] | –
O=C(COC(=O)c1cncc(Br)c1)NCc1ccccc1 | -24.4 | 4.11 µM [falling, full curve, poor fit] | –
COc1ccc(OC)c(S(=O)(=O)NC(C)(C)C)c1 | -3.91 | 0.651 µM [falling, full curve, poor fit] | –
COc1cccc(N(C(=O)c2snc(C(N)=O)c2N)C(C(=O)NCc2ccccc2)c2ccc(O)cc2)c1 (configuration not stated) | -6.84 | – | –
O=C(NCCc1cccc(F)c1)[C@@H]1CSC2c3ccccc3C(=O)N21 (some centres not stated) | 21.2 | 0.517 µM [rising, single point] | –
O=C(CN1C(=O)C2CC=CCC2C1=O)Nc1ccc(F)cc1F (configuration not stated) | -14.1 | 0.082 µM [falling, full curve, poor fit] | –
S=C(Nc1ccccc1)N1CCc2ccccc21 | 15 | 23.1 µM [rising, single point] | –
COCCN(C(=O)c1csnn1)C(C(=O)NC1CCCCC1)c1ccc(C)cc1 (configuration not stated) | -14.3 | 6.51 µM [rising, single point] | –
COc1ccc(CN2CCN(c3ncccn3)CC2)c(C)c1C | -24.4 | – | 0.0651 µM [falling, full curve, poor fit]
COc1ccccc1NC(=S)N(Cc1ccco1)Cc1cc2cc(C)ccc2[nH]c1=O | 5.77 | 2.31 µM [rising, single point] | –
CCCCN(C(=O)c1cc(S(=O)(=O)N2CCCCCC2)ccc1OC)c1c(N)n(CCC)c(=O)[nH]c1=O | – | 6.51 µM [rising, single point] | 5.8 µM [rising, partial curve]
CN1CCN(C(=O)C2=C[C@@H](c3ccc4c(c3)OCO4)C[C@@H](OCc3ccc(CO)cc3)O2)CC1 | -14.6 | 25.9 µM [falling, single point] | –
CN(CCNC(=O)CCNC(=O)Cn1ccc2ccccc2c1=O)Cc1ccccc1 | -30.9 | 29.1 µM [falling, single point] | 23.1 µM [falling, single point]
Cc1ccc(S(=O)(=O)N(CC(=O)Nc2ccc(C)c(Cl)c2)C(=O)N2CCN(C)CC2)cc1 | -19.3 | 11.6 µM [falling, partial curve, poor fit] | –

SMILES | cell number change [%] | AC50 [1] | AC50 [2]
COc1ccc(NC(=O)C2CCCNC2=O)cc1 (configuration not stated) | 27.6 | – | –
Cc1cnc([N+](=O)[O-])n1CCOC(=O)NC(=O)c1c(F)cccc1F | 121 | – | 29.1 µM [rising, partial curve, poor fit]
CN(CC(=O)Nc1ccc(S(=O)(=O)N2CCCC2)cc1)Cc1c(F)cccc1Cl | 20.8 | – | 0.146 µM [rising, full curve, poor fit]
O=C(N/N=C/c1cccc([N+](=O)[O-])c1)c1cnccn1 | 46.8 | – | 29.1 µM [rising, single point]
Cc1ccc(S(=O)(=O)Nc2cccc(C(=O)NCc3ccccn3)c2)cc1F | 28.9 | 3.66 µM [rising, full curve] | 1.3 µM [rising, full curve, poor fit]
CCC(=O)Nc1nnc(Cc2ccccc2)s1 | -2.43 | 29.1 µM [rising, single point] | –
Cc1cccnc1NC(=O)c1ccco1 | – | – | 0.461 µM [falling, single point]
CCOc1ccccc1NC(=O)NC1CCCCCCC1 | -3.76 | 0.0206 µM [falling, full curve, poor fit] | –
COc1ccccc1OCC(=O)NCCS(=O)(=O)N1CCN(c2ccccc2)CC1 | 36.7 | – | 29.1 µM [rising, single point]
Cc1ccc(OCCC(=O)OCC(=O)N2c3ccccc3CC2C)cc1 (configuration not stated) | -45 | 29.1 µM [falling, single point] | 0.58 µM [falling, full curve]
COc1ccccc1N1CCN(S(=O)(=O)c2cc(-c3cc(C)no3)ccc2C(C)C)CC1 | 24.5 | 29.1 µM [rising, single point] | –
CCN(CC(=O)Nc1ccc(NC(C)=O)cc1)C(=O)COc1ccc2ccccc2c1 | – | – | 4.61 µM [rising, partial curve, poor fit]
NC(=NCCc1c[nH]c2ccccc12)NC(=O)c1ccc(F)cc1 | 9.16 | 0.651 µM [rising, single point] | –
N#CCCn1nnc2ccccc21 | 22.4 | 0.731 µM [rising, single point] | 0.461 µM [rising, full curve]
COc1cc(/C=C/C(=O)Nc2nc3ccc(S(=O)(=O)N(C)C)cc3s2)cc(OC)c1OC | 21.2 | 0.92 µM [rising, full curve, poor fit] | –
O=C(Nc1ccccc1Cl)Oc1ccc2ccccc2c1 | 12.4 | – | –
C#CCNc1nc(CC)nc2c1nnn2Cc1ccccc1F | -13.6 | 0.231 µM [rising, full curve, poor fit] | –
CCOC(=O)N1CCC(NC(=O)CN(c2ccc(C(C)C)cc2)S(=O)(=O)c2c(C)nn(C)c2C)CC1 | – | – | 0.92 µM [falling, full curve, poor fit]
CCn1c(SCC(=O)Nc2nc(C)c(C)s2)nnc1-c1cccnc1 | – | 0.259 µM [rising, partial curve, poor fit] | 2.59 µM [rising, partial curve]

Single records, from the list above.
CCOC(=O)N1CCC(NC(=O)CN(c2ccc(C(C)C)cc2)S(=O)(=O)c2c(C)nn(C)c2C)CC1 in the list: AC50 [2]: 0.92 µM [falling, full curve, poor fit]
COC(=O)c1sccc1NC(=O)CSCC(=O)O in the list: AC50 [1]: 6.51 µM [falling, partial curve]; AC50 [2]: 6.51 µM [falling, single point]
COc1ccccc1N(C)S(=O)(=O)c1ccc(Cl)c(C(=O)NCC2(N(C)C)CCCCC2)c1 in the list: cell number change [%]: 2.57; AC50 [1]: 11.6 µM [falling, partial curve]
